Reference: PMC8390506
These are yes or no findings as the source states them, for the method shown. Some entries that bind do so weakly or less than the wild type.

The chains behind the UniProt entries cited, without tags or fusion partners.
UniProt Q6NUF4: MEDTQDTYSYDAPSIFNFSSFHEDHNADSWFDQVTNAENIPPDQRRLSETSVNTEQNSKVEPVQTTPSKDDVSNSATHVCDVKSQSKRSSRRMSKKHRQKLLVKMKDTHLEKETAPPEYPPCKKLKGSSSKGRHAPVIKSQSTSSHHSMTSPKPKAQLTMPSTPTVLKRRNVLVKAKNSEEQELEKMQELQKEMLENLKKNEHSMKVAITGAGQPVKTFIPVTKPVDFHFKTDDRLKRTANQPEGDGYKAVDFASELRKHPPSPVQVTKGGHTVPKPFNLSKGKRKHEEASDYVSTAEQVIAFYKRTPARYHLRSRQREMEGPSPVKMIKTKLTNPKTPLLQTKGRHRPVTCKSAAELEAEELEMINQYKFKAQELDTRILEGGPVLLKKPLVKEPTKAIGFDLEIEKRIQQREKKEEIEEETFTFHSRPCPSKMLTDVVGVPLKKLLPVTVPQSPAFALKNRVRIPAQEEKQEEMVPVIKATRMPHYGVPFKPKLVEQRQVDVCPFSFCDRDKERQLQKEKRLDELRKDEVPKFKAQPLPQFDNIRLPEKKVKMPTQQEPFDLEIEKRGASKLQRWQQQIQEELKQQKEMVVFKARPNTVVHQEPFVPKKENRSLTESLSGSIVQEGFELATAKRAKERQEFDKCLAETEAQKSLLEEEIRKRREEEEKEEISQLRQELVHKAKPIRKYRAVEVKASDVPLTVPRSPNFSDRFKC
UniProt P52297: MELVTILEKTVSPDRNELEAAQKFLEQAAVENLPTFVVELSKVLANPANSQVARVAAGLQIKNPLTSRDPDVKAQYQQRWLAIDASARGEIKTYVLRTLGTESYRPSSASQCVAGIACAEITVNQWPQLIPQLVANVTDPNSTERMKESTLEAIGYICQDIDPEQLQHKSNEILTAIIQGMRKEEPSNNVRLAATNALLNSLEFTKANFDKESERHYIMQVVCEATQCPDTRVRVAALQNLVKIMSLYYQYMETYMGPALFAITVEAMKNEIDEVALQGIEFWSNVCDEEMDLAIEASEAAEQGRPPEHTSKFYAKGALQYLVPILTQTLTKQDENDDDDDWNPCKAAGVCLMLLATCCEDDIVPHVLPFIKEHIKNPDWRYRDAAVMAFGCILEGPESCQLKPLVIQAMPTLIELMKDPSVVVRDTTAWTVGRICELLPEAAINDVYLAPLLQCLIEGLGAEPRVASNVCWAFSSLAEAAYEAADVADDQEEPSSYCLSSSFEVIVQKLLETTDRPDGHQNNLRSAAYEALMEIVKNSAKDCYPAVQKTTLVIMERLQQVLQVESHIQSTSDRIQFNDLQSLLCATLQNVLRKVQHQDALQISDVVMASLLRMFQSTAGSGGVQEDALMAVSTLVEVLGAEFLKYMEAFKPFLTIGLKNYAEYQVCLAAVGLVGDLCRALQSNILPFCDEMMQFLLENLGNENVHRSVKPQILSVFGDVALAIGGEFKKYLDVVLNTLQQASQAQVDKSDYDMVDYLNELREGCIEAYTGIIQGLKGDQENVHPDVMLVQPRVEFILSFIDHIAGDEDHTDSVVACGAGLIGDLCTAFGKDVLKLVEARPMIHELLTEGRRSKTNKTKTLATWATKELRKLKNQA

Tests used:
[1] = target: Targeting Protein for XKlp2 (TPX2), full length, wild type (Xenopus laevis) (UniProt Q6NUF4); test: SEC; AKTA Pure-25L; TPX2 kept at 2 μM, importin-β varied from 2 to 30 μM; area under the peak of the eluted complexes (1.2-1.6 ml, A280); both purified
[2] = target: Targeting Protein for XKlp2 (TPX2), full length, wild type (Xenopus laevis) (UniProt Q6NUF4); test: SEC-MALS; Superdex-200-increase 3.2/300 in line with a Wyatt light scattering machine; GFP-TPX2 alone, importin-α/β alone and TPX2 with importin-α/β (TPX2 printed as 5 M, importin-α/β 15 μM); both purified
[3] = target: Targeting Protein for XKlp2 (TPX2), full length, wild type (Xenopus laevis) (UniProt Q6NUF4); test: SEC-MALS; Superdex-200-increase 3.2/300; TPX2 with importin-β (Fig. S1C); both purified

Measured: binding

importin-β (from UniProt P52297 1-876)
binds weakly: [1] | [2] | [3]
